The values below come from publication PMC9852593.

Protein sequences, listed by entry. Tags and fused reporters are not part of them. Residues count along the entry.
UniProt P25445, residues 26-335: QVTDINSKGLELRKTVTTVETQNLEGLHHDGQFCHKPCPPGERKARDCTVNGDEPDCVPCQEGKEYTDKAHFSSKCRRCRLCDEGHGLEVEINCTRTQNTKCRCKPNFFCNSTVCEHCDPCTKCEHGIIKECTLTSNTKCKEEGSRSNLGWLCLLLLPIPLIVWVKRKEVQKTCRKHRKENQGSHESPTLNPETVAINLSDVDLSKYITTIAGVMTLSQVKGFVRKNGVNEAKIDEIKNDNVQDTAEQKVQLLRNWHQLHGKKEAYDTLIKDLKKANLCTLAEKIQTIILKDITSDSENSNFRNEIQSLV
UniProt P08581, residues 25-1390: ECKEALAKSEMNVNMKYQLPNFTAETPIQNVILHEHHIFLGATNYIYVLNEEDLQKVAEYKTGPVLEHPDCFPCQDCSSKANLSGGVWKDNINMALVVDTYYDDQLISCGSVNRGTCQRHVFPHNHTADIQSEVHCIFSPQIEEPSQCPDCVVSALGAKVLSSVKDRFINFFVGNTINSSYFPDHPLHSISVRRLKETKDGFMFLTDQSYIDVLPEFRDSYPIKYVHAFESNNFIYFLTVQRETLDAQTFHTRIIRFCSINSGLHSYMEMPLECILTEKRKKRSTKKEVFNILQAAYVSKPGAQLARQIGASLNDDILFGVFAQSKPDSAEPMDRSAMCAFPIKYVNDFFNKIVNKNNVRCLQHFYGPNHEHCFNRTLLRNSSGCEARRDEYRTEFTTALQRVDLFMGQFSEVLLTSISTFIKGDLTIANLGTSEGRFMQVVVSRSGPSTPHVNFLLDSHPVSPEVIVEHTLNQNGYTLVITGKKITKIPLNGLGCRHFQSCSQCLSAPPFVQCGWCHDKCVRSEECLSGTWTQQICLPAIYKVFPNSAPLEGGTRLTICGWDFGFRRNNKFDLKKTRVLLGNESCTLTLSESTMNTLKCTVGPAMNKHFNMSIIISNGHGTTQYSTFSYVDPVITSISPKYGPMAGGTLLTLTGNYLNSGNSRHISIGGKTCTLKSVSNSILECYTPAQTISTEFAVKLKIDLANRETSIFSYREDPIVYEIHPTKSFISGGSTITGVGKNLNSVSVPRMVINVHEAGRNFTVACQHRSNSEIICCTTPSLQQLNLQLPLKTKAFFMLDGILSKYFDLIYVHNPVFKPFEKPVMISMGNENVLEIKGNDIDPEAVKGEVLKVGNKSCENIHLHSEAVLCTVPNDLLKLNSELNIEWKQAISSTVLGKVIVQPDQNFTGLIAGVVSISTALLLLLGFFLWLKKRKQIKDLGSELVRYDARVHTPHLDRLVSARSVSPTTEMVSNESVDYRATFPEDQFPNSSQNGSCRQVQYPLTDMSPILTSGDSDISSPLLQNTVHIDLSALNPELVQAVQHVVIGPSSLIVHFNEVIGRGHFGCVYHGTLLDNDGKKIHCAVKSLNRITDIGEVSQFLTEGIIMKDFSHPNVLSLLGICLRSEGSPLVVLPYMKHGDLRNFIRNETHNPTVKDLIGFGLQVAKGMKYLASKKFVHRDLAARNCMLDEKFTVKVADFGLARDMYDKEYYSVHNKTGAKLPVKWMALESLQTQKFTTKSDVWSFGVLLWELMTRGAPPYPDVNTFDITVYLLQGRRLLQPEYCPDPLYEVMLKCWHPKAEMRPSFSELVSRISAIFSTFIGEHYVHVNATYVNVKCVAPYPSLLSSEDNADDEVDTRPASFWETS
UniProt P16056, residues 25-1379: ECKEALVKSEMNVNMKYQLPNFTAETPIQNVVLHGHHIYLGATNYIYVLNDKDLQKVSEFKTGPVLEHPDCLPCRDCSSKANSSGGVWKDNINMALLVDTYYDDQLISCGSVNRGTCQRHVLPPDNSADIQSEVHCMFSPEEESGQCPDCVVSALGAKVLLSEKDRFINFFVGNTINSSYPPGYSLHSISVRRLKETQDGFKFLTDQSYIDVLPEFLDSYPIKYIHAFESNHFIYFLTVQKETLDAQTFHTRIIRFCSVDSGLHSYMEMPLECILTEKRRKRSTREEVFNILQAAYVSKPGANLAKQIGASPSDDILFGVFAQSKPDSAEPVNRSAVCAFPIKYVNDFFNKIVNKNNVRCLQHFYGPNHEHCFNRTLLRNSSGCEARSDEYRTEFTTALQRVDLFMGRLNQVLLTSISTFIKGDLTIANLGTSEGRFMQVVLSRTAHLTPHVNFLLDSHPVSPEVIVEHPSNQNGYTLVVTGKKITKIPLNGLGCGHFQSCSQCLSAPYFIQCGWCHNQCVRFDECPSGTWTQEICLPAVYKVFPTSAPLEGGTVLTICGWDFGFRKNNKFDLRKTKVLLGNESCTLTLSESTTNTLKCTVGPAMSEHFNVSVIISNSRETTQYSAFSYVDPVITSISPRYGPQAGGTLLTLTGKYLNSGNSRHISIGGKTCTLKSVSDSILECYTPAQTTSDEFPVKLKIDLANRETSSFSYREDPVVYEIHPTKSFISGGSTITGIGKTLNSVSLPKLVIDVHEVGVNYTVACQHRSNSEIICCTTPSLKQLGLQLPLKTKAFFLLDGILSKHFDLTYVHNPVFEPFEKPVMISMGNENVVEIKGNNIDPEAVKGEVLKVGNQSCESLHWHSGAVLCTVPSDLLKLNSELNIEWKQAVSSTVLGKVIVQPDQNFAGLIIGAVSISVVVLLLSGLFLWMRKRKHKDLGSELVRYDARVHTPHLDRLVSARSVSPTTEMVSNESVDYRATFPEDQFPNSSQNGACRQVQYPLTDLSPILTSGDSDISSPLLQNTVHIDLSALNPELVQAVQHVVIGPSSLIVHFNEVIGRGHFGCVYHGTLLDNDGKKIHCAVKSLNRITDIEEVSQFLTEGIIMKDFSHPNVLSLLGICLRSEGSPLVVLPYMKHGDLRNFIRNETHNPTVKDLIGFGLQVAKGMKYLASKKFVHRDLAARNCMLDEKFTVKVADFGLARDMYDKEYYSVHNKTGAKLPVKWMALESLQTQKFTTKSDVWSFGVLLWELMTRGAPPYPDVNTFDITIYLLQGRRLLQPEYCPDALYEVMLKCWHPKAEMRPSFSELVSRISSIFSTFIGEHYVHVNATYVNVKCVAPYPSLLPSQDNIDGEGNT

Results are given in words; binding and its absence hold for the method and conditions named. Binding seen in cells or lysates may run through a third protein. Some binding calls cover weakened binding; strength is not graded here.

The target of assay [1] is Fas (death receptor), human (human (endogenous in peripheral blood CD8+ T cells)) (UniProt P25445). In words: co-IP; lysates of naive and PHA-stimulated healthy human peripheral blood CD8+ T cells, with or without 400 ng/mL rHGF for 48 and 72 h; IP with anti-Fas or anti-c-Met, IB with anti-c-Met or anti-Fas.
Assay [2] addresses T1, Fas (death receptor), mouse (mouse (endogenous in splenic CD8+ T cells of C57BL/6 mice)) (UniProt P25446).
T1 sequence: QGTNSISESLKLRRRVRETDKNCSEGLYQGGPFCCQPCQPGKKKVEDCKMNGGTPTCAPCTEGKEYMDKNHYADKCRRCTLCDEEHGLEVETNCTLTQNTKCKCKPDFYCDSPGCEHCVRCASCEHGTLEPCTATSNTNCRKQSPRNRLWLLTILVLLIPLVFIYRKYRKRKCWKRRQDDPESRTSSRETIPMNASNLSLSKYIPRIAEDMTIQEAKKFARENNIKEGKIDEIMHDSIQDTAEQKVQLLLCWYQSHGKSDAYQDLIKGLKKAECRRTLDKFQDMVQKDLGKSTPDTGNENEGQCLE
In words: co-IP; lysates of naive and PHA-stimulated mouse splenic CD8+ T cells not treated with rHGF (time zero); IP with anti-Fas or anti-c-Met on protein A/G magnetic beads, IB with anti-c-Met or anti-Fas.

The target of assay [3] is T1, Fas (death receptor), mouse (mouse (endogenous in splenic CD8+ T cells of C57BL/6 mice)). As to the kind of experiment: condition: only cells treated with 400 ng/mL rHGF for 48 and 72 h; co-IP; as a1, but cells treated with 400 ng/mL rHGF for 48 and 72 h before lysis.
The target of assay [4] is T2, Fas (death receptor), mouse (mouse (endogenous in splenic CD8+ T cells of C57BL/6 mice)), P25446.
T2 chain: T1 sequence
In words: co-IP; DISC analysis: lysates of naive and PHA-stimulated mouse splenic CD8+ T cells treated with 400 ng/mL rHGF (48 and 72 h); IP with anti-Fas, IB with anti-FADD, anti-caspase-8 and anti-caspase-3. The conditions noted are these: remark: other sources report otherwise.

The target of assay [5] is T1, Fas (death receptor), mouse (mouse (endogenous in splenic CD8+ T cells of C57BL/6 mice)). The description is as above.

As for “c-Met (hepatocyte growth factor receptor), human (from UniProt P08581 25-1390)”, in assay [1], the binding entry was “binds”.

For the molecule “c-Met (hepatocyte growth factor receptor), mouse (from UniProt P16056 25-1379)”, the results for the binding entry in assay [2] and in assay [3] were “binds” and “no binding”, respectively.

B1: Fas-associated death domain (FADD), mouse, Q61160 1-205 (protein)
chain: MDPFLVLLHSLSGSLSGNDLMELKFLCRERVSKRKLERVQSGLDLFTVLLEQNDLERGHTGLLRELLASLRRHDLLQRLDDFEAGTATAAPPGEADLQVAFDIVCDNVGRDWKRLARELKVSEAKMDGIEEKYPRSLSERVRESLKVWKNAEKKNASVAGLVKALRTCRLNLVADLVEEAQESVSKSENMSPVLRDSTVSSSETP
B1: the binding entry in assay [4] was “binds”.

B2: caspase-8, mouse (enzyme, UniProt O89110 1-480)
chain: MDFQSCLYAIAEELGSEDLAALKFLCLDYIPHKKQETIEDAQKLFLRLREKGMLEEGNLSFLKELLFHISRWDLLVNFLDCNREEMVRELRDPDNAQISPYRVMLFKLSEEVSELELRSFKFLLNNEIPKCKLEDDLSLLEIFVEMEKRTMLAENNLETLKSICDQVNKSLLGKIEDYERSSTERRMSLEGREELPPSVLDEMSLKMAELCDSPREQDSESRTSDKVYQMKNKPRGYCLIINNHDFSKAREDITQLRKMKDRKGTDCDKEALSKTFKELHFEIVSYDDCTANEIHEILEGYQSADHKNKDCFICCILSHGDKGVVYGTDGKEASIYDLTSYFTGSKCPSLSGKPKIFFIQACQGSNFQKGVPDEAGFEQQNHTLEVDSSSHKNYIPDEADFLLGMATVKNCVSYRDPVNGTWYIQSLCQSLRERCPQGDDILSILTGVNYDVSNKDDRRNKGKQMPQPTFTLRKKLFFPP
As to B2, the binding result in assay [5] is given as “binds”.
